This note sets out measurements from patent US8815891B2, “Tricyclic derivative or pharmaceutically acceptable salts thereof, preparation method thereof, and pharmaceutical composition containing the same” (Je Il Pharmaceutical Co., Ltd., priority 2008, dated 2014).

Sequences of proteins named here, by UniProt entry; tags and fusion partners are left off.
UniProt P09874, whole entry: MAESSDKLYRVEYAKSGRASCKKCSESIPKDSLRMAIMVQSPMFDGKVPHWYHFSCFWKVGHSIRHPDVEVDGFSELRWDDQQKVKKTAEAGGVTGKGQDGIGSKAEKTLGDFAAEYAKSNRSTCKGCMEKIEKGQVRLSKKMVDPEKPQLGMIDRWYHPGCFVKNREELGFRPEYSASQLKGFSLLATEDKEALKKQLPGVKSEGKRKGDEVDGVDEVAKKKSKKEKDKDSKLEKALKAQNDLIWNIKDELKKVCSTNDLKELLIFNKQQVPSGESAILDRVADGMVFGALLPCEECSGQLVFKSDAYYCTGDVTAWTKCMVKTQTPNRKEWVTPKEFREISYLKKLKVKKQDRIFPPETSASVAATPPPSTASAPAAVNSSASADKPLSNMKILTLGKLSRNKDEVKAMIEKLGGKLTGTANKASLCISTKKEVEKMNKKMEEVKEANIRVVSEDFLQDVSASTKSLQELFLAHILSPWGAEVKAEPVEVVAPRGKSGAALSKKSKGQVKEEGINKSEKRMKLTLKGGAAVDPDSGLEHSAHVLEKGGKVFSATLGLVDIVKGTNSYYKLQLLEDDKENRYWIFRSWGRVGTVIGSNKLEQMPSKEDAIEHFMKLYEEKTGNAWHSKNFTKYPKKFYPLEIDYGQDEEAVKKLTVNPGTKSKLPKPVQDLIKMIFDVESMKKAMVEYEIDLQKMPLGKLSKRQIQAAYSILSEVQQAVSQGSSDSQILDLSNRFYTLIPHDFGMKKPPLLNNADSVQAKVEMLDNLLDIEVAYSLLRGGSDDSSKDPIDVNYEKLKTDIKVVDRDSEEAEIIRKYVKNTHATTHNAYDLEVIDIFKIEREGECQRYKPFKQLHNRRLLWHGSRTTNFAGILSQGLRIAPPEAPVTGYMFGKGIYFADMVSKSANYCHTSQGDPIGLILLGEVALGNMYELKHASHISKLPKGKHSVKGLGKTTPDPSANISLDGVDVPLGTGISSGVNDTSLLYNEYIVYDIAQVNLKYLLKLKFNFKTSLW

The target of this test is PARP-1 enzyme (Homo sapiens (Human), UniProt P09874). Description: Poly(ADP-ribose)polymerase [PARP-1] enzyme inhibitory activity (Trevigen PARP Assay kit). Particulars: read-out: PARP-1 Inhibitory activity IC50; tested form: 2HCl. Type of test: biochemical.

Structures are written as SMILES. The structures given here were assigned with low confidence; some may be wrong.

As to `CCOC(=O)CCNCc1ccc2c3c(c(=O)[nH]c2c1)CCCN3`, the IC50 is 540 nM.

The term IC50 denotes the concentration that inhibits the measured activity by half.
